Test results from article PMC11377751.
These are yes or no findings as the source states them, for the method shown. In cells and extracts the contact can be indirect. Some results given as binding are weak or reduced against the parent protein; the word gives no strength.

Chains of the proteins cited; added tags and fusions are not shown.
UniProt Q5TYM5: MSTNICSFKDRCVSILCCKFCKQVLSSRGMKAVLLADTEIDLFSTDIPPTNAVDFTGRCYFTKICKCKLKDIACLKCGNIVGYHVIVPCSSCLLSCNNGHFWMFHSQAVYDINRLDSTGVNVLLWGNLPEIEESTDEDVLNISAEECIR
UniProt Q86X60: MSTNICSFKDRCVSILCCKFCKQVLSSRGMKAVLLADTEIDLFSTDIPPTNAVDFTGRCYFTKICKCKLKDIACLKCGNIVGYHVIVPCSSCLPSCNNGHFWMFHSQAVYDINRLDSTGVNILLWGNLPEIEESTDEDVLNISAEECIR
UniProt Q6L9T8: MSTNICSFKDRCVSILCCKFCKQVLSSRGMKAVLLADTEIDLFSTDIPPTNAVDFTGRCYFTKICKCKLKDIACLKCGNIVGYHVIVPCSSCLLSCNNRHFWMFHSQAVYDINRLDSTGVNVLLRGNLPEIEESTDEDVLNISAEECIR
UniProt P27694: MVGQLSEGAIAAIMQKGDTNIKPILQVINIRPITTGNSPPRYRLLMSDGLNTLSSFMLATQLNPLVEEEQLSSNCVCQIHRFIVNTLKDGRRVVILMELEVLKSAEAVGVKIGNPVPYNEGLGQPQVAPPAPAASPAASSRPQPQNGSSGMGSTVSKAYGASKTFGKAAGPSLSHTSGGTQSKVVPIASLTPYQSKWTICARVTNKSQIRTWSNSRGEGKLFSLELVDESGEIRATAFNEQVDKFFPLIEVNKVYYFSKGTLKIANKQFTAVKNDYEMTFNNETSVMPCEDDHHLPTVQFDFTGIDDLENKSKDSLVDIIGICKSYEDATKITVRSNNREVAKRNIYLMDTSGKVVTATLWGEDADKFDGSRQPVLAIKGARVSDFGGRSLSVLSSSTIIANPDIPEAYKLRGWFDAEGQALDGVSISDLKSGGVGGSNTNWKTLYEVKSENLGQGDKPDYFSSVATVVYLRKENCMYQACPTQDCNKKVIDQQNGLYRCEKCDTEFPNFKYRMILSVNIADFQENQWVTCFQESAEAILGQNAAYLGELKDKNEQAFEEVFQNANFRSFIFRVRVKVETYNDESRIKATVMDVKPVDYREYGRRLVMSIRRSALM
UniProt H0Y354: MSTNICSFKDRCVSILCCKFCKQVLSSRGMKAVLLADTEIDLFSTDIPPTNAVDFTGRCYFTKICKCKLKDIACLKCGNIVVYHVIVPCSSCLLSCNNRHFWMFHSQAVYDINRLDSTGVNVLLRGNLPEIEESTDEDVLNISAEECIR

Tests used:
GFP-FAM72A (human) = GFP-FAM72A (human) (UniProt Q5TYM5); test: pull-down; GFP pulldown from cell extracts of HEK293T cells co-expressing GFP-FAM72A with FLAG-tagged FAM72B, FAM72C or FAM72D
FLAG-FAM72B (human) = FLAG-FAM72B (human) (UniProt Q86X60); test: co-IP; FLAG pulldown (anti-FLAG M2 magnetic beads) of high salt cell extracts from HEK293T cells expressing FLAG-FAM72B; immunoblot of eluted immunocomplexes

Substance: FLAG-FAM72B (from UniProt Q86X60 1-149)
- binding (GFP-FAM72A (human)): binds

Substance: FLAG-tagged FAM72D (from UniProt Q6L9T8 1-149)
- binding (GFP-FAM72A (human)): binds

Substance: RPA1 (from UniProt P27694 1-616)
- binding (FLAG-FAM72B (human)): binds

Substance: FLAG-tagged FAM72C (from UniProt H0Y354 1-149)
- binding (GFP-FAM72A (human)): binds
